In paper PMC7403315 (Nature Communications, 2020):

Experiment: general procedure: Fmoc solid-phase peptide synthesis; Rink Amide AM resin; HBTU/HOBt/DIPEA; HATU/DIPEA for unnatural amino acids
Conditions: whole synthesis, scale gram-scale

## PEPTIDE1{[dR].[dS].C.[Phe4F].R.L.P.C.H.Q.L.[bhArg].C.[am]}|CHEM1{[TATA]}$PEPTIDE1,CHEM1,3:R3-1:R1|PEPTIDE1,CHEM1,8:R3-1:R2|PEPTIDE1,CHEM1,13:R3-1:R3$$$V2.0
  final purity (method not given): > 95%
  isolated yield: greater than 50%

Some peptides are written in HELM: one residue between dots, names in brackets for other building blocks, links after the first $.
